Measurements reported in PubChem BioAssay AID504808 (Drosophila RNAi Screening Center, 2011).
Purpose: 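Fly genes required to hold E2F transcription in check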 (primary screen). Cell system: Drosophila S2 cells. Reagents: long dsRNA against Drosophila genes. Measurement: 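Dual luciferase plate measurements; E2F-specific signal taken as firefly over Renilla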. Reading the numbers: E2F firefly: higher = more E2F reporter activity; Renilla normaliser: higher = more normaliser reporter signal. Rule for the call: 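Called active if the normalised E2F reporter went up by over 50%; the cutoff is arbitrary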.
The screen tested about 21,000 reagents; shown is a random part of those that have a named target and a result. In the full data, 18 (0.084%) got an active call. 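Raw counts without plate normalisation, one of two replicates; the ratio scores behind the calls were not deposited.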 Unmarked entries are inactive. Names joined by + are all predicted targets of the reagent. The record does not give: the amount of reagent, the time to read-out.

target	PubChem SID	E2F firefly, rep 1	Renilla normaliser, rep 1
CG3301	SID104195263	78599	3529
rb	SID104198618	77611	4595
CG17572	SID104182421	1.05e5	4174
Vps33B	SID104195514	1971	792
CG15729 (retired record)	SID104199487	1.28e5	6506
mbm + CG11555	SID104180107	1.68e5	6156
CG7309	SID104182837	1.37e5	4828
Gr66a	SID104190575	1.05e5	4109
CG15047	SID104199415	1.62e5	6036
Acbp5	SID104190340	1.02e5	4469
CG42327	SID104194728	1.15e5	6493
CG42327	SID104194729	1.35e5	6319
Ets96B	SID104195919	1.06e5	5486
CG11698	SID104194147	50828	3492
Gr22e	SID104200704	79771	2275
CG6788	SID104199799	1.58e5	6908
CG17261	SID104180290	1.47e5	4872
SH3PX1	SID104190931	1.06e5	5204
Lcp1Psi	SID104184897	1.41e5	4902
Vm26Aa	SID104183264	1.41e5	4301
Tsen34 + Trl	SID104189806	1.50e5	7630
Nuf2	SID104182915	1.12e5	5382
CG31055	SID104193624	84789	2962
PH4alphaNE2	SID104196336	1.37e5	7810
CG31323	SID104194693	1.02e5	6151
CG34025	SID104187806	1.29e5	4219
UbcE2M	SID104190620	64455	3305
Phlpp	SID104181857	99838	4386
CG8149	SID104196183	1.52e5	6914
Fur2	SID104199609	2.40e5	7446
CG15458	SID104200321	1.39e5	6821
ND-MNLL	SID104197951	87092	4904
eIF2Balpha	SID104196124	1707	964
Cpr65Ea	SID104190819	85426	3538

Reformatted: entries from further up
target,PubChem SID,"E2F firefly, rep 1","Renilla normaliser, rep 1"
mbm + CG11555,SID104180107,1.68e5,6156
CG7309,SID104182837,1.37e5,4828
Gr66a,SID104190575,1.05e5,4109
CG15047,SID104199415,1.62e5,6036
